Laboratory results: PubChem BioAssay AID1259405 (NCATS, 2018)
The deposit covers about 50,000 reagents; below is a part drawn at random. Over the whole deposit, about 4,000 (8%) are marked active. 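Mouse siRNA library applied to hamster cells; one well for each siRNA.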 Entries without a mark were called inactive. Reagents against one gene are numbered here.

- Test: 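Mouse-designed siRNAs used to find CHO productivity engineering targets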 (primary screen)
- Cells: Chinese hamster CHO-K1 ovary cells with stable secreted eGFP expression
- Reagents: single siRNA against mouse genes, 0.8 pmol siRNA per well (2 µl of 400 nM stock)
- Time to read-out: 3 days
- Measured: 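Per-well intracellular GFP measured by laser scanning cytometry, plus viability from ATP luminescence, each relative to plate median of non-targeting control wells, in %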
- Scale: GFP, % of control: higher = more GFP per well, higher productivity; viability (ATP), % of control: higher = more viable cells (more ATP)
- Active means: 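Called active when intracellular GFP, relative to negative control, is at or above 120%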

Gene	siRNA no.	GFP, % of control	viability (ATP), % of control
Slc2a5	1	46.2	97.3
Slc2a5	2	84.8	93.3
Slc2a5	3	66.5	67.7
Magohb (mago homolog B, exon junction complex core component)	1	112	100
Magohb (mago homolog B, exon junction complex core component)	2	159 (active)	127
Magohb (mago homolog B, exon junction complex core component)	3	90.5	103
Iqcf3 (IQ motif containing F3)	1	98.1	56
Iqcf3 (IQ motif containing F3)	2	89	97.8
Iqcf3 (IQ motif containing F3)	3	108	104
Marco (macrophage receptor with collagenous structure)	1	124 (active)	114
Marco (macrophage receptor with collagenous structure)	2	81.9	69.6
Marco (macrophage receptor with collagenous structure)	3	60.6	67.6
Pheta2 (PH domain containing endocytic trafficking adaptor 2)	1	87	66.3
Pheta2 (PH domain containing endocytic trafficking adaptor 2)	2	98.5	69.6
Pheta2 (PH domain containing endocytic trafficking adaptor 2)	3	118	110
Epb42 (erythrocyte membrane protein band 4.2)	1	71.8	116
Epb42 (erythrocyte membrane protein band 4.2)	2	89.5	177
Epb42 (erythrocyte membrane protein band 4.2)	3	97.5	110
Zfp275 (zinc finger protein 275)	1	34.6	70.6
Zfp275 (zinc finger protein 275)	2	44.7	70.8
Zfp275 (zinc finger protein 275)	3	23.8	57.7
Eprs1 (glutamyl-prolyl-tRNA synthetase 1)	1	121 (active)	98.1
Eprs1 (glutamyl-prolyl-tRNA synthetase 1)	2	76.7	80.3
Eprs1 (glutamyl-prolyl-tRNA synthetase 1)	3	79.9	133
Kctd19 (potassium channel tetramerisation domain containing 19)	1	69.8	58.1
Kctd19 (potassium channel tetramerisation domain containing 19)	2	110	101
Kctd19 (potassium channel tetramerisation domain containing 19)	3	95.1	70.3
Rdh12 (retinol dehydrogenase 12)	1	101	85.8
Rdh12 (retinol dehydrogenase 12)	2	56.2	70.2
Rdh12 (retinol dehydrogenase 12)	3	61	95.1
Acp3 (acid phosphatase 3)	1	75.9	60.8
Acp3 (acid phosphatase 3)	2	135 (active)	69.9
Acp3 (acid phosphatase 3)	3	103	71.8
Podn (podocan)	1	72.8	55.7
Podn (podocan)	2	48.8	87.1
Podn (podocan)	3	38.6	51.4
Nrsn1 (neurensin 1)	1	100	63.7
Nrsn1 (neurensin 1)	2	82.4	76.6
Nrsn1 (neurensin 1)	3	69.4	79.4
Itpr3 (inositol 1,4,5-triphosphate receptor 3)	1	110	84.7
Itpr3 (inositol 1,4,5-triphosphate receptor 3)	2	70.2	63.2
Itpr3 (inositol 1,4,5-triphosphate receptor 3)	3	20.2	18.6
Rnf113a1 (ring finger protein 113A1)	1	76.2	71.7
Rnf113a1 (ring finger protein 113A1)	2	63.9	70.8
Rnf113a1 (ring finger protein 113A1)	3	76	56.9
Slc35a5	1	100	57.7
Slc35a5	2	71.1	77
Slc35a5	3	57.4	79.5
Meis1 (Meis homeobox 1)	1	55	68.1
Meis1 (Meis homeobox 1)	2	82.8	85.8
Meis1 (Meis homeobox 1)	3	53.7	79.1
Cryba2 (crystallin, beta A2)	1	87.5	83.7
Cryba2 (crystallin, beta A2)	2	97.1	58
Cryba2 (crystallin, beta A2)	3	80	108

The list goes on (8 carried over from the part before).
Gene	siRNA no.	GFP, % of control	viability (ATP), % of control
Slc35a5	2	71.1	77
Slc35a5	3	57.4	79.5
Meis1 (Meis homeobox 1)	1	55	68.1
Meis1 (Meis homeobox 1)	2	82.8	85.8
Meis1 (Meis homeobox 1)	3	53.7	79.1
Cryba2 (crystallin, beta A2)	1	87.5	83.7
Cryba2 (crystallin, beta A2)	2	97.1	58
Cryba2 (crystallin, beta A2)	3	80	108
Dscam (DS cell adhesion molecule)	1	84.9	81.9
Dscam (DS cell adhesion molecule)	2	97	72.8
9630028B13Rik (RIKEN cDNA 9630028B13 gene)	1	46.6	56.8
9630028B13Rik (RIKEN cDNA 9630028B13 gene)	2	57.2	62.5
9630028B13Rik (RIKEN cDNA 9630028B13 gene)	3	73.6	79.6
Tdpoz1 (TD and POZ domain containing 1)	1	48.2	79
Tdpoz1 (TD and POZ domain containing 1)	2	60.1	73.1
Tdpoz1 (TD and POZ domain containing 1)	3	57.9	62.2
Hmg20b (high mobility group 20B)	1	73.5	65.9
Hmg20b (high mobility group 20B)	2	110	60.7
Hmg20b (high mobility group 20B)	3	100	97.7
Wdr1 (WD repeat domain 1)	1	78.1	84.1
Wdr1 (WD repeat domain 1)	2	59.9	56.8
Wdr1 (WD repeat domain 1)	3	68.1	50.6
Adm (adrenomedullin)	1	43.9	41.3
Adm (adrenomedullin)	2	77.7	71.1
Adm (adrenomedullin)	3	54.4	74
Cyb561d2 (cytochrome b-561 domain containing 2)	1	59.3	66
Cyb561d2 (cytochrome b-561 domain containing 2)	2	24.7	53.8
Cyb561d2 (cytochrome b-561 domain containing 2)	3	49.8	83.2
Slc24a3	1	91.1	96.1
Slc24a3	2	21.5	25.7
Slc24a3	3	91.2	85.4
Ccpg1 (cell cycle progression 1)	1	73.7	63.7
Ccpg1 (cell cycle progression 1)	2	90.1	87
Ccpg1 (cell cycle progression 1)	3	96.7	116
Strn4 (striatin, calmodulin binding protein 4)	1	62.8	61.8
Strn4 (striatin, calmodulin binding protein 4)	2	123 (active)	127
Strn4 (striatin, calmodulin binding protein 4)	3	147 (active)	149
Zfp708 (zinc finger protein 708)	1	37.3	33.9
Zfp708 (zinc finger protein 708)	2	46.8	64
Zfp708 (zinc finger protein 708)	3	58.2	65.6
